Measurements reported in PubChem BioAssay AID1259308 (NCATS, 2017)
Aim: 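Genes whose loss raises luciferase production in HEK293 cells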 (primary screen). Cells: human HEK293 embryonic kidney cells stably expressing firefly luciferase (HEK-CMV-Luc2-Hygro). Reagent: single siRNA against human genes, 0.8 pmol siRNA per well. Timing: 72 h. Measured: 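Reporter luminescence and viable-cell signal on separate replicate plates, given as percent of non-targeting control and median/MAD z-scores, plus per-cell luciferase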. Reading the numbers: total luciferase, z-score and total luciferase, % of control: higher = more reporter protein produced; luciferase per cell, z-score: higher = more reporter output per viable cell; viable cells, % of control: higher = more viable cells. Call rule: 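An siRNA counts as active if its total luciferase robust z-score exceeds 3; genes with two or more such siRNAs out of three were retested with fresh siRNAs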. Meaning of the calls: active = raised luciferase; inactive = no rise.
This is an unselected part of about 59,000 deposited reagents. About 1,510 of them (2.6%) were called active. 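Calls use total luciferase alone and ignore viability, so some active siRNAs may act by altering cell number.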 A number with no mark means an inactive call. The numbers tell different reagents against one gene apart. No sequences are given here.

The first 5 records as a preview:
gene knocked down | siRNA no. | total luciferase, z-score | total luciferase, % of control | luciferase per cell, z-score | viable cells, % of control
ATF5 | 1 | 0.242 | 86.7 | 0.913 | 76.2
ATF5 | 2 | 0.604 | 93.9 | 0.661 | 88.2
ATF5 | 3 | -0.596 | 70 | -0.463 | 88.4
PROC | 1 | 0.59 | 93.6 | 0.691 | 87.2
PROC | 2 | -1.13 | 59.3 | -0.59 | 77.5

Main list, repeating the preview:
gene knocked down | siRNA no. | total luciferase, z-score | total luciferase, % of control | luciferase per cell, z-score | viable cells, % of control
ATF5 | 1 | 0.242 | 86.7 | 0.913 | 76.2
ATF5 | 2 | 0.604 | 93.9 | 0.661 | 88.2
ATF5 | 3 | -0.596 | 70 | -0.463 | 88.4
PROC | 1 | 0.59 | 93.6 | 0.691 | 87.2
PROC | 2 | -1.13 | 59.3 | -0.59 | 77.5
PROC | 3 | 1.03 | 102 | 0.0874 | 112
PDE1C | 1 | -1.19 | 58.2 | -1.46 | 95.4
PDE1C | 2 | -0.305 | 75.8 | -0.927 | 108
PDE1C | 3 | -0.708 | 67.8 | 0.0335 | 75.1
ZNF214 | 1 | -0.316 | 75.6 | -0.582 | 98.5
ZNF214 | 2 | 0.947 | 101 | 0.343 | 103
ZNF214 | 3 | -0.595 | 70 | -0.787 | 96.3
TMEM100 | 1 | -0.64 | 69.2 | 0.331 | 70.8
TMEM100 | 2 | -0.889 | 64.2 | -1.47 | 106
TMEM100 | 3 | -0.41 | 73.7 | -0.774 | 101
SEC61G | 1 | -0.845 | 65.1 | 0.216 | 68.7
SEC61G | 2 | -0.993 | 62.1 | -1.31 | 98.1
SEC61G | 3 | 0.428 | 90.4 | 0.407 | 90.8
PFKFB2 | 1 | 0.189 | 85.6 | 0.126 | 92.6
PFKFB2 | 2 | -1.11 | 59.8 | -1.55 | 100
PFKFB2 | 3 | -0.811 | 65.7 | -1.28 | 103
RACGAP1 | 1 | -0.635 | 69.3 | -0.596 | 90.6
RACGAP1 | 2 | 0.289 | 87.6 | 0.151 | 94.1
RACGAP1 | 3 | -0.484 | 72.3 | 0.479 | 71.2
TTC21A | 1 | -0.146 | 79 | -0.427 | 98.8
TTC21A | 2 | 0.194 | 85.7 | -0.107 | 98.6
TTC21A | 3 | -0.0446 | 81 | -0.361 | 99.5
NEU2 | 1 | 0.338 | 88.6 | 0.354 | 90.2
NEU2 | 2 | -0.951 | 63 | -0.16 | 73.4
NEU2 | 3 | -1.64 | 49.2 | -1.95 | 91.9
KRT80 | 1 | 2.61 | 134 | 2.28 | 81.9
KRT80 | 2 | -1.07 | 60.5 | -1.89 | 111
KRT80 | 3 | 1.71 | 116 | 1.64 | 84.1
TMEM201 | 1 | 0.158 | 85 | -0.17 | 99.4
TMEM201 | 2 | 2.26 | 127 | 1.95 | 84.9
TMEM201 | 3 | 2.75 | 137 | 3.16 | 66.4
TGFB1I1 | 1 | 0.954 | 101 | 0.618 | 95.8
TGFB1I1 | 2 | 0.674 | 95.3 | 0.0217 | 106
TGFB1I1 | 3 | 0.55 | 92.8 | 0.149 | 99.7
MIR3976HG | 1 | -1.11 | 59.8 | -1.08 | 88.7
MIR3976HG | 2 | 0.0174 | 82.2 | 0.369 | 83.4
MIR3976HG | 3 | -1.36 | 54.8 | -1.73 | 96.8
INCENP | 1 | -1.02 | 61.6 | 0.0493 | 67.9
INCENP | 2 | -1.16 | 58.8 | -1.28 | 92.1
INCENP | 3 | -2.08 | 40.6 | -2.83 | 95.5
NGF | 1 | -0.544 | 71.1 | -0.982 | 103
NGF | 2 | 1.91 | 120 | 1.64 | 87
NGF | 3 | 1.12 | 104 | 0.0183 | 116
PLA2G3 | 1 | -0.21 | 77.7 | -0.338 | 94.9
PLA2G3 | 2 | 1.38 | 109 | 0.481 | 108
PLA2G3 | 3 | 2 | 122 | 1.12 | 101
SERPINA5 | 1 | -0.826 | 65.5 | -0.856 | 91.6
SERPINA5 | 2 | -0.765 | 66.7 | -0.355 | 81.8
SERPINA5 | 3 | -1.43 | 53.4 | -0.648 | 70.8
PCDHGC4 | 1 | -0.793 | 66.1 | -0.634 | 87.3
PCDHGC4 | 2 | -1 | 62 | -0.582 | 80.8
PCDHGC4 | 3 | 4.3 (active) | 167 | 3.72 | 70.3
KIF9 | 1 | -1.72 | 47.6 | -0.675 | 63.6
KIF9 | 2 | 0.623 | 94.3 | 0.317 | 96.9
KIF9 | 3 | -0.504 | 71.9 | -0.248 | 85.7
OR13C4 | 1 | 3.53 (active) | 152 | 2.1 | 97.9
OR13C4 | 2 | 0.159 | 85 | 0.0271 | 94.4
OR13C4 | 3 | 1.4 | 110 | 1.83 | 75.7
TMBIM4 | 1 | 2.19 | 126 | 1.25 | 101
TMBIM4 | 2 | -1.53 | 51.5 | -1.72 | 90.4
TMBIM4 | 3 | -1.07 | 60.7 | -1.46 | 99.6
CSN1S2AP | 1 | -0.547 | 71 | 0.11 | 77.1
CSN1S2AP | 2 | -0.681 | 68.3 | -0.0807 | 78
CSN1S2AP | 3 | -0.173 | 78.5 | -0.0346 | 88.5
PLEKHA6 | 1 | 2.89 | 139 | 1.48 | 106
PLEKHA6 | 2 | 0.0953 | 83.8 | -0.365 | 103
PLEKHA6 | 3 | 3.82 (active) | 158 | 3.32 | 73.6
TAF11 | 1 | 0.534 | 92.5 | 0.283 | 96
TAF11 | 2 | 1.46 | 111 | 0.926 | 97.1
TAF11 | 3 | 1.72 | 116 | 1.94 | 77.9
